Measured values reported in patent publication US12496297B1, “Compositions of autophagy modulating agents and uses thereof” (Washington University, priority 2020, dated 2025).
At least one compound was matched to its structure with a doubt left.

Assays:
Type in all cases: cell-based, human
[1] = tested on: pre-HD-MSNs; test: Autophagy measurement in pre-HD-MSNs (p62 immunoblot, CYTO-ID green); settings: 50 μM vs DMSO
[2] = tested on: MSNs from healthy individuals (WT-MSNs); test: Neuronal cell death assay in WT-MSNs (Caspase-3/7, Annexin V); settings: 50 μM vs DMSO, FIG. 18D
[3] = tested on: pre-HD-MSNs; test: Neuronal cell death assay in pre-HD-MSNs (Caspase-3/7, Annexin V); settings: 50 μM, PID 26 / PID30, FIG. 18C
[4] = tested on: HTT inclusion bodies (IBs) in pre-HD-MSNs; test: HTT inclusion bodies / mHTT aggregation in pre-HD-MSNs; settings: pre-HD-MSNs from four patients, 50 μM vs DMSO, PID30, FIG. 18E

## O=c1cc(N2CCOCC2)oc2c(-c3ccccc3)cccc12 [LY294002]
[1]; PID26, FIG. 18A
  p62/SQSTM1 immunoblot signals: increase of p62/SQSTM1 immunoblot signals
[1]; PID 26, FIG. 18B
  CYTO-ID signal: decrease of CYTO-ID signal
[2]
  apoptosis (Caspase-3/7, Annexin V): did not have a significant effect on apoptosis
[3]
  apoptotic signals (Caspase-3/7, Annexin V): increased apoptotic signals
[4]
  mHTT aggregation: significant increase in mHTT aggregation
